The supplement of paper PMC6411743
± gives the standard deviation of the averaged measurements. The entries are a selection whose mix differs from that of the whole data set. Small differences around the control level are noise.

The chains behind the UniProt entries cited, without tags or fusion partners. Where a name states a change or a piece, a line headed by the entry shows the natural chain unless it says otherwise.
UniProt P30307: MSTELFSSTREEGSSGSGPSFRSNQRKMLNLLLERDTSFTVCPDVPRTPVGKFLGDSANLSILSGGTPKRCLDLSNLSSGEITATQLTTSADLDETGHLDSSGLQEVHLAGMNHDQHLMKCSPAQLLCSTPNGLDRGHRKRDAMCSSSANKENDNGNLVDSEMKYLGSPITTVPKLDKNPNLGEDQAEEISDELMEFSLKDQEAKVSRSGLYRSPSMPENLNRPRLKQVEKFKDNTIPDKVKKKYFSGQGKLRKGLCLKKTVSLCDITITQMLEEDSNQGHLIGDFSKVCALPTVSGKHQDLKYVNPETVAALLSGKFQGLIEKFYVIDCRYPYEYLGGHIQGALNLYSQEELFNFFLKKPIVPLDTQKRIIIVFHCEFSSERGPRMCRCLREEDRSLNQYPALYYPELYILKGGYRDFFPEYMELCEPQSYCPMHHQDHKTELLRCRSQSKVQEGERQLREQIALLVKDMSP
UniProt P34059: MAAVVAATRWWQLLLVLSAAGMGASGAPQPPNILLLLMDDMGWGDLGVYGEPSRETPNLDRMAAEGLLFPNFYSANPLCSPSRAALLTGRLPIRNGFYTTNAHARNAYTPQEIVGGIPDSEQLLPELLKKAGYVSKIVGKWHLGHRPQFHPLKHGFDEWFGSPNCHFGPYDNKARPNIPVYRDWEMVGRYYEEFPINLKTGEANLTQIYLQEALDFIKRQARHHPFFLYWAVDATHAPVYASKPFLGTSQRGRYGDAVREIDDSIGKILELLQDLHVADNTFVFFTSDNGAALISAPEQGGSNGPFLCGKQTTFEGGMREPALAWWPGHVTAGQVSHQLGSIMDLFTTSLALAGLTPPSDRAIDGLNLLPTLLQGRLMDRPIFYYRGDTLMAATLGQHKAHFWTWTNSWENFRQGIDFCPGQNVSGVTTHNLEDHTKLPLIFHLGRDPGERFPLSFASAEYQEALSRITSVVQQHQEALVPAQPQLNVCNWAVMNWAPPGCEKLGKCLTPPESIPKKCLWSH
UniProt P17900: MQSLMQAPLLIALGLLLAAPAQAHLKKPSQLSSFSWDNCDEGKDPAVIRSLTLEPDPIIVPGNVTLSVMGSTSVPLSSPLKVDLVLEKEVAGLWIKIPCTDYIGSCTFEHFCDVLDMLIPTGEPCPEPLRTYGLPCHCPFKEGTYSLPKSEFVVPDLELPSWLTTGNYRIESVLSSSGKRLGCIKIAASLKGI
UniProt P33992: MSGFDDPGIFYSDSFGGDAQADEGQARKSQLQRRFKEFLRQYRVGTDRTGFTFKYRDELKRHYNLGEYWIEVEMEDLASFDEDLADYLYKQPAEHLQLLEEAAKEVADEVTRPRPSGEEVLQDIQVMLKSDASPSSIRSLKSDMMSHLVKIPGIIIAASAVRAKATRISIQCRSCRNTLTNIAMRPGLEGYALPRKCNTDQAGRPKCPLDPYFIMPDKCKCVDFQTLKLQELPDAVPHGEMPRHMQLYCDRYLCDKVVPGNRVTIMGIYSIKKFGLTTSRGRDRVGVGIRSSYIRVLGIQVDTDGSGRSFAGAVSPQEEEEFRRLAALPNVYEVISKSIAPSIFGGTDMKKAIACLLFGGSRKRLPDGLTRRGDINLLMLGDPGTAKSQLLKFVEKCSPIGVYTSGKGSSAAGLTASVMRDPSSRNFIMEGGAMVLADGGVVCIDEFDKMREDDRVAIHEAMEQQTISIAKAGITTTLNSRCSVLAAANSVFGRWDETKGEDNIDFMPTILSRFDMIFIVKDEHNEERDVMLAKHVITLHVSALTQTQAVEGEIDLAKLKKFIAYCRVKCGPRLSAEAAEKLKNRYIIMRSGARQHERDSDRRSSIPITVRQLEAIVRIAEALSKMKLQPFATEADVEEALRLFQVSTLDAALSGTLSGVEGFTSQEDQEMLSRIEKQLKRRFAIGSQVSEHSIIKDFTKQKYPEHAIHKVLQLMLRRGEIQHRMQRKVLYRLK
UniProt P21580: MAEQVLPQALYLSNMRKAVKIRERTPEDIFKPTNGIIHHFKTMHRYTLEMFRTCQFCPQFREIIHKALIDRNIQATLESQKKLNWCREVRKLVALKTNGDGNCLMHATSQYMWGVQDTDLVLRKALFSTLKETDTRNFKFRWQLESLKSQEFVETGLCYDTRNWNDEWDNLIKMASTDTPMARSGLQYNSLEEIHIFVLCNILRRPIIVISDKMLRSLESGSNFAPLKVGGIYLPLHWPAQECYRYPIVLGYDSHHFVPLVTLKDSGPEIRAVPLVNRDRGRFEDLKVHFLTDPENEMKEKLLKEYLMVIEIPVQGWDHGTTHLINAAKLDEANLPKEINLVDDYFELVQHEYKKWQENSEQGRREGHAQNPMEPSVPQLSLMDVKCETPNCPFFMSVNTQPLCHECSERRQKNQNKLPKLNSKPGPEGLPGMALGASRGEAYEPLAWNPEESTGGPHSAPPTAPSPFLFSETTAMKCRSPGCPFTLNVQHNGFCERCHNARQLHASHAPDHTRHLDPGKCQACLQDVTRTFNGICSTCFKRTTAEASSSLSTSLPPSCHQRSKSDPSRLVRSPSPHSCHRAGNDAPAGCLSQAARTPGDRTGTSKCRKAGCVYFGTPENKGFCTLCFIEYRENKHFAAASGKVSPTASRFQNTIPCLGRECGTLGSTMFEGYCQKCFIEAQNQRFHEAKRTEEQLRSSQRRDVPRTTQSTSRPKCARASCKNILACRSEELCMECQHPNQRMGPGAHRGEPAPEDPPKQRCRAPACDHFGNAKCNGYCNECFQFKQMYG
UniProt P33552, whole entry: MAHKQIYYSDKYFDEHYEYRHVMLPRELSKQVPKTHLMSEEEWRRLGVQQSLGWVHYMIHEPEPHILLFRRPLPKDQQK
UniProt P29372, whole entry: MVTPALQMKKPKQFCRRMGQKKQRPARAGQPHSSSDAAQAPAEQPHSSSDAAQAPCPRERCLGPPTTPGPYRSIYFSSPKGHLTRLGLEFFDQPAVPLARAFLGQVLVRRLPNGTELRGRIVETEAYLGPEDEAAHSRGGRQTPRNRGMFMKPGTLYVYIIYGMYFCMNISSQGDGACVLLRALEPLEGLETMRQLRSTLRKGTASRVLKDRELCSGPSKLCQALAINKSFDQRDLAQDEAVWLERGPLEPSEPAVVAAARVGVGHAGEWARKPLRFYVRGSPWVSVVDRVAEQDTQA
UniProt P26374: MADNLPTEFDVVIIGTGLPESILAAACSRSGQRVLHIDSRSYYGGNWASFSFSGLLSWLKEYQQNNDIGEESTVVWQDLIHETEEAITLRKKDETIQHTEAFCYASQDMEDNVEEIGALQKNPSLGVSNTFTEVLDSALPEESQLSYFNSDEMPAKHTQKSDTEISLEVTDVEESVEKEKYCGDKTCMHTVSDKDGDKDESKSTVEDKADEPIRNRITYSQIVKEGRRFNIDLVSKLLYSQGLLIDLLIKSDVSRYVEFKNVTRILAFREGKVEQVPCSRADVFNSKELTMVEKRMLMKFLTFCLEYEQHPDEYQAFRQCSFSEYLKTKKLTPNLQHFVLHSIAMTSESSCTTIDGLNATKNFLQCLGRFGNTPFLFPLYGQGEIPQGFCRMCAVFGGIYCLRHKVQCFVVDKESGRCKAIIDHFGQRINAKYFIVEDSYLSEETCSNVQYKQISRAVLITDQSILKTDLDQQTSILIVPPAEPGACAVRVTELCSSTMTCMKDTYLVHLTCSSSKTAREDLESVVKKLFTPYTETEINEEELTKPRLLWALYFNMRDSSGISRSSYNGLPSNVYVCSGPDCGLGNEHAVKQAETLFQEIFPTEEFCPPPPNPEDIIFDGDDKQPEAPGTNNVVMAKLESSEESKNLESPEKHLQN
UniProt P23919: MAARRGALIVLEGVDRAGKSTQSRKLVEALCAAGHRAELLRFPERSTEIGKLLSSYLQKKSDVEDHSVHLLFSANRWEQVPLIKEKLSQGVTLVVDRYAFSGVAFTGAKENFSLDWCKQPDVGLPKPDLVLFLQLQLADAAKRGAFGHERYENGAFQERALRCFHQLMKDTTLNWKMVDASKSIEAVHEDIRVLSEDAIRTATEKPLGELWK
UniProt P17096: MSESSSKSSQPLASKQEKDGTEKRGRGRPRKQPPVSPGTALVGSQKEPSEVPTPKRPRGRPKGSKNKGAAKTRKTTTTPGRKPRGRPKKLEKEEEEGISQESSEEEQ
UniProt P31150: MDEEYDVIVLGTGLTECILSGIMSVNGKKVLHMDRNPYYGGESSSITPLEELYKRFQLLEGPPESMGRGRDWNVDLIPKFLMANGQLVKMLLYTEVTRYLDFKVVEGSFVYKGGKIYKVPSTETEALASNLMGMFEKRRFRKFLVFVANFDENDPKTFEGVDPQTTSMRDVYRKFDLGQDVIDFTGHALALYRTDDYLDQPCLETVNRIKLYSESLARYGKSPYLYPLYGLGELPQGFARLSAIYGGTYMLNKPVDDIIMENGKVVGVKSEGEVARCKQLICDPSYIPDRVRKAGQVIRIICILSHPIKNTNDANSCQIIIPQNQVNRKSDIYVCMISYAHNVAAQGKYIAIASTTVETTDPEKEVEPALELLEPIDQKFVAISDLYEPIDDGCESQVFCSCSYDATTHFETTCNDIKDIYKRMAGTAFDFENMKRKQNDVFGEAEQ
UniProt P17535: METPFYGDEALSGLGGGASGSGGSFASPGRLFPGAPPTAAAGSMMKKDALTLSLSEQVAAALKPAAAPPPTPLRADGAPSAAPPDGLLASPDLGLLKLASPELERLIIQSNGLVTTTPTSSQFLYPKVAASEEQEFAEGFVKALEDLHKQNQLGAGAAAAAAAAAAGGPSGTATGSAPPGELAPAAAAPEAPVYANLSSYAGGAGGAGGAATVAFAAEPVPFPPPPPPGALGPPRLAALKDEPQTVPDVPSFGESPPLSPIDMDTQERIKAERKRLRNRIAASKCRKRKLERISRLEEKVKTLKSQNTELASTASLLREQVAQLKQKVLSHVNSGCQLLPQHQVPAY
UniProt P22670: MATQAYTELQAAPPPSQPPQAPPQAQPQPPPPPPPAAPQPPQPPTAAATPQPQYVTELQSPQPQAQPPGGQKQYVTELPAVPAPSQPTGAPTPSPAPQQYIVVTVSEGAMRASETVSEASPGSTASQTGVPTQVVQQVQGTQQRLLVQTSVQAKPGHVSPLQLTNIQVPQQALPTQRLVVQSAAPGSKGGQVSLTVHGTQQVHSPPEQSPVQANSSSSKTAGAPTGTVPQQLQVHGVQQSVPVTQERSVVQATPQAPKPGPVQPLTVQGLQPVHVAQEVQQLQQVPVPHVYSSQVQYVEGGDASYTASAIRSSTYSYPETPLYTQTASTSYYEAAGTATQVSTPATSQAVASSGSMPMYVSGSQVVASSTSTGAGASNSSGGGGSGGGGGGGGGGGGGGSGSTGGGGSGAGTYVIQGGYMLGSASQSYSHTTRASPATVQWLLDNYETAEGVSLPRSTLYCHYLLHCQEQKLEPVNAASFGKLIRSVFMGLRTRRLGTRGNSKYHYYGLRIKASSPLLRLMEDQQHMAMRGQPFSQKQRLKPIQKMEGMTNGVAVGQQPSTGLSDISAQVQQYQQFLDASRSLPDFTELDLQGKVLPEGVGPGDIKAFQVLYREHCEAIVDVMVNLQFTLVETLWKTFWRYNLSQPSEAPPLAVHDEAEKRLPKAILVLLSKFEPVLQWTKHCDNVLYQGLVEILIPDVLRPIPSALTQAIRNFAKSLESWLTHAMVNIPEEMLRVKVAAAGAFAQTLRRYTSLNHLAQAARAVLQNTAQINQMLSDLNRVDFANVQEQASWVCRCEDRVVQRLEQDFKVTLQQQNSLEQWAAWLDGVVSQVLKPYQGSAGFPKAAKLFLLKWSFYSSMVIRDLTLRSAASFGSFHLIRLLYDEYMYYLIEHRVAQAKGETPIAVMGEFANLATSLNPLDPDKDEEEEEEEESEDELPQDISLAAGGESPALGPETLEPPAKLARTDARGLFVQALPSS
UniProt P20073: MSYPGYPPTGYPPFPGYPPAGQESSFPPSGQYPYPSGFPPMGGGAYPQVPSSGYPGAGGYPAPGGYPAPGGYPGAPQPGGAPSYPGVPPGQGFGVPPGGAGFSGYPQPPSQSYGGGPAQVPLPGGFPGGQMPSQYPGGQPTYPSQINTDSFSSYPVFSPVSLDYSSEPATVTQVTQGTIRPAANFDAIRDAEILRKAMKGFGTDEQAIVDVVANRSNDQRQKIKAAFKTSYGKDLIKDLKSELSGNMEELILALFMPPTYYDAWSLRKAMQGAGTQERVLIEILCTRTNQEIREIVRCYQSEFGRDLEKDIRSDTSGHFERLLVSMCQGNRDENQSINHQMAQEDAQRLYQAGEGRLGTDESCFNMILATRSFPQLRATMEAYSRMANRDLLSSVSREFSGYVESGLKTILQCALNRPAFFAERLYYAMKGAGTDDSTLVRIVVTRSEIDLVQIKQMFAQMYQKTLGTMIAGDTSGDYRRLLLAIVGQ
UniProt P20338: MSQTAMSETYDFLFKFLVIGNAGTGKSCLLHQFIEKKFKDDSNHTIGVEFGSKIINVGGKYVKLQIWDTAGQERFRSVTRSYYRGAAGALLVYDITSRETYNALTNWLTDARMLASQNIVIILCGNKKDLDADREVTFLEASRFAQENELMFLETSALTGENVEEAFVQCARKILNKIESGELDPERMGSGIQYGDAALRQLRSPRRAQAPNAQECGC

Compound: Nc1ncnc2c1ncn2[C@@H]1O[C@H](COP(=O)(O)OP(=O)(O)OP(=O)(O)O)[C@@H](O)[C@H]1O [adenosine triphosphate]
Assay: NP40-soluble protein abundance relative to vehicle (solubility fold change) (ratio); higher = more soluble protein in presence of ATP
Summary of the method: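 Crude Jurkat lysate, prepared by Dounce homogenisation, was exposed to eight concentrations from 0.1 to 10 mM for 10 min at room temperature and then 3 min at 37 °C. Solubilisation used 0.8% NP40 with benzonase for 60 min at 4 °C, followed by ultracentrifugation and TMT labelling of the supernatant for LC-MS/MS. After vsn normalisation of intensities, each value is the fold change against the detergent-processed vehicle within each replicate, across three independent experiments.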

Target	NP40-soluble protein abundance (concentration: 0.1mM)	NP40-soluble protein abundance (concentration: 0.5mM)
TUBG1 (UniProt P23258)	1.05 ± 0.09	1.08 ± 0.076
UniProt P17544-2|P17544-4|P17544-6	1.12 ± 0.12	0.937 ± 0.038
UniProt P30049	0.949 ± 0.078	0.902 ± 0.052
UniProt P29218 and related entries	1.03 ± 0.035	1.02 ± 0.026
UniProt P30307 and related entries	1.01 ± 0.059	1.02 ± 0.067
UniProt P35241 and related entries	1 ± 0.039	1.02 ± 0.074
GALNS (UniProt P34059)	0.952 ± 0.054	0.985 ± 0.041
UniProt P19784	1.05 ± 0.072	1.01 ± 0.049
UniProt P21964 and related entries	1 ± 0.033	1.03 ± 0.047
UniProt P35609-2	0.882 ± 0.057	0.984 ± 0.11
WEE1 (UniProt P30291)	1 ± 0.04	1.05 ± 0.049
UniProt P35626	1.04 ± 0.036	1.06 ± 0.048
DDX6 (UniProt P26196)	0.998 ± 0.051	1.02 ± 0.017
UniProt P33981 and related entries	1.024 ± 0.0094	1.07 ± 0.029
UniProt P30154 and related entries	0.974 ± 0.011	0.949 ± 0.014
UniProt P26010 and related entries	0.889 ± 0.15	0.927 ± 0.13
PIK3R1 (UniProt P27986)	1.02 ± 0.04	1.03 ± 0.054
PLCG2 (UniProt P16885)	1.07 ± 0.072	1.05 ± 0.088
GM2A (UniProt P17900)	0.981 ± 0.021	0.937 ± 0.083
ARF4 (UniProt P18085)	1.07 ± 0.17	1.08 ± 0.082
MCM5 (UniProt P33992)	1.01 ± 0.056	0.983 ± 0.013
UniProt P34897 and related entries	1.01 ± 0.037	0.999 ± 0.022
UniProt P20290 and related entries	0.963 ± 0.092	1.01 ± 0.035
HIBADH (UniProt P31937)	0.948 ± 0.062	0.952 ± 0.083

Exported as labelled records: entries from further up.
UniProt P19784
  NP40-soluble protein abundance (concentration: 0.1mM): 1.05 ± 0.072; NP40-soluble protein abundance (concentration: 0.5mM): 1.01 ± 0.049
UniProt P21964 and related entries
  NP40-soluble protein abundance (concentration: 0.1mM): 1 ± 0.033; NP40-soluble protein abundance (concentration: 0.5mM): 1.03 ± 0.047
UniProt P35609-2
  NP40-soluble protein abundance (concentration: 0.1mM): 0.882 ± 0.057; NP40-soluble protein abundance (concentration: 0.5mM): 0.984 ± 0.11
WEE1 (UniProt P30291)
  NP40-soluble protein abundance (concentration: 0.1mM): 1 ± 0.04; NP40-soluble protein abundance (concentration: 0.5mM): 1.05 ± 0.049

(further entries)

Target	NP40-soluble protein abundance (concentration: 0.1mM)	NP40-soluble protein abundance (concentration: 0.5mM)
UniProt P23497 and related entries	1.01 ± 0.029	0.997 ± 0.017
SLC7A1 (UniProt P30825)	0.969 ± 0.016	0.944 ± 0.063
UniProt P22001	0.901 ± 0.067	0.912 ± 0.092
UniProt P20963 and related entries	0.93 ± 0.077	0.934 ± 0.15
UniProt P32242	0.912 ± 0.11	0.961 ± 0.14
EEF1G (UniProt P26641)	0.991 ± 0.041	1.01 ± 0.046
LMNB1 (UniProt P20700)	0.934 ± 0.04	0.98 ± 0.13
UniProt P18754 and related entries	1.02 ± 0.026	1.04 ± 0.035
UniProt P31948 and related entries	0.996 ± 0.14	0.971 ± 0.12
UniProt P25054 and related entries	0.926 ± 0.071	0.989 ± 0.033
TNFAIP3 (UniProt P21580)	1.01 ± 0.045	0.9318 ± 0.0061
CKS2 (UniProt P33552)	1.03 ± 0.036	1.02 ± 0.025
GTF2E2 (UniProt P29084)	0.96 ± 0.024	0.981 ± 0.041
GCHFR (UniProt P30047)	0.909 ± 0.33	0.903 ± 0.14
UniProt P29372 and related entries	1.03 ± 0.034	1.08 ± 0.022
HNRNPA2B1 (UniProt P22626)	1.01 ± 0.11	1.08 ± 0.098
STMN1 (UniProt P16949)	0.937 ± 0.077	0.888 ± 0.076
UniProt P21333-2|P21333 and related entries	0.992 ± 0.045	1.02 ± 0.072
UniProt P25705 and related entries	0.976 ± 0.028	0.99 ± 0.059
UniProt P27635 and related entries	0.951 ± 0.036	0.932 ± 0.08
UniProt P17980 and related entries	0.987 ± 0.026	0.965 ± 0.041
ECHS1 (UniProt P30084)	0.989 ± 0.028	1.03 ± 0.058
UniProt P33240 and related entries	0.966 ± 0.038	0.962 ± 0.034
UniProt P19793 and related entries	1.01 ± 0.052	1.07 ± 0.15

Target	NP40-soluble protein abundance (concentration: 0.1mM)	NP40-soluble protein abundance (concentration: 0.5mM)
RRM1 (UniProt P23921)	1.04 ± 0.092	1.01 ± 0.074
SDHB (UniProt P21912)	0.99 ± 0.028	0.97 ± 0.018
RPL13 (UniProt P26373)	0.937 ± 0.17	0.916 ± 0.1
UniProt P22314 and related entries	1.02 ± 0.049	1.01 ± 0.045
HOXB4 (UniProt P17483)	0.973 ± 0.061	0.939 ± 0.052
UniProt P28331 and related entries	0.991 ± 0.04	1 ± 0.048
GTF2F1 (UniProt P35269)	0.982 ± 0.029	0.986 ± 0.041
CHML (UniProt P26374)	0.9922 ± 0.0069	0.982 ± 0.048
PRDX6 (UniProt P30041)	0.983 ± 0.019	0.944 ± 0.079
DTYMK (UniProt P23919)	0.995 ± 0.049	0.992 ± 0.034
PGAM1 (UniProt P18669)	0.933 ± 0.13	1.03 ± 0.069
PSMB4 (UniProt P28070)	0.968 ± 0.033	0.981 ± 0.03
NCL (UniProt P19338)	0.876 ± 0.03	0.699 ± 0.047
GGT1 (UniProt P19440)	0.9 ± 0.08	0.886 ± 0.2
YWHAQ (UniProt P27348)	0.907 ± 0.09	0.865 ± 0.14
UniProt P20810-10|P20810-6	0.954 ± 0.023	0.939 ± 0.017
CBL (UniProt P22681)	1.024 ± 0.0096	1.03 ± 0.048
UniProt P34896 and related entries	1.04 ± 0.046	1.02 ± 0.039
ABCD1 (UniProt P33897)	1.12 ± 0.09	1.08 ± 0.023
UniProt P35613 and related entries	0.943 ± 0.028	0.917 ± 0.061
RPL35A (UniProt P18077)	1.04 ± 0.17	0.959 ± 0.12
UniProt P17096 and related entries	0.941 ± 0.17	1.01 ± 0.46
UniProt P16591 and related entries	1.04 ± 0.06	1.07 ± 0.065
MCM4 (UniProt P33991)	1.02 ± 0.049	1.02 ± 0.045

Target	NP40-soluble protein abundance (concentration: 0.1mM)	NP40-soluble protein abundance (concentration: 0.5mM)
TAL1 (UniProt P17542)	0.922 ± 0.17	0.852 ± 0.18
UniProt P30622-1|P30622-2	0.996 ± 0.024	1.02 ± 0.05
GDI1 (UniProt P31150)	1.05 ± 0.088	1.06 ± 0.064
UniProt P32519 and related entries	0.987 ± 0.012	1 ± 0.07
UniProt P29374 and related entries	0.972 ± 0.058	1.02 ± 0.071
UniProt P20023 and related entries	0.982 ± 0.073	0.956 ± 0.062
JUND (UniProt P17535)	0.93 ± 0.16	0.844 ± 0.16
UniProt P28482	0.987 ± 0.027	1.02 ± 0.033
UniProt P29353 and related entries	0.982 ± 0.029	1.03 ± 0.019
GOT1 (UniProt P17174)	0.999 ± 0.067	1 ± 0.035
ERCC2 (UniProt P18074)	1.04 ± 0.039	1.02 ± 0.047
DEK (UniProt P35659)	1 ± 0.023	1.04 ± 0.015
UniProt P31942 and related entries	0.999 ± 0.05	1.02 ± 0.037
RFX1 (UniProt P22670)	1.02 ± 0.03	0.9806 ± 0.008
ATIC (UniProt P31939)	1.03 ± 0.09	1.05 ± 0.11
UniProt P33241 and related entries	0.788 ± 0.056	0.942 ± 0.036
UniProt P35580 and related entries	0.956 ± 0.03	1.09 ± 0.073
YWHAB (UniProt P31946)	0.9 ± 0.08	0.912 ± 0.092
ABCC1 (UniProt P33527)	1.02 ± 0.018	1 ± 0.013
PSMA4 (UniProt P25789)	0.808 ± 0.23	1.09 ± 0.19
CALR (UniProt P27797)	0.992 ± 0.056	1.03 ± 0.076
SPR (UniProt P35270)	0.971 ± 0.045	0.915 ± 0.037
UniProt P35221 and related entries	0.974 ± 0.027	0.984 ± 0.018
UniProt P23443 and related entries	1.01 ± 0.066	1.02 ± 0.032

Target	NP40-soluble protein abundance (concentration: 0.1mM)	NP40-soluble protein abundance (concentration: 0.5mM)
UniProt P27701 and related entries	0.89 ± 0.049	0.8 ± 0.2
UniProt P32019 and related entries	1.09 ± 0.16	1.07 ± 0.13
GNA15 (UniProt P30679)	1.08 ± 0.11	1.02 ± 0.025
UniProt P20073 and related entries	0.96 ± 0.026	0.929 ± 0.047
POLR2C (UniProt P19387)	1.02 ± 0.054	1.05 ± 0.027
UniProt P27824 and related entries	0.967 ± 0.05	1.02 ± 0.049
AKT2 (UniProt P31751)	1.06 ± 0.088	1.02 ± 0.081
RAB4A (UniProt P20338)	1.03 ± 0.066	0.983 ± 0.11
UniProt P17252	1.04 ± 0.068	1.04 ± 0.066
ERCC3 (UniProt P19447)	0.993 ± 0.056	1.007 ± 0.0086
UniProt P32189 and related entries	1.09 ± 0.044	1.08 ± 0.039
RPL7 (UniProt P18124)	0.983 ± 0.12	0.948 ± 0.11
UniProt P27540 and related entries	1.02 ± 0.017	0.998 ± 0.025
ERP29 (UniProt P30040)	0.958 ± 0.021	0.956 ± 0.03
UniProt P17706 and related entries	0.991 ± 0.093	0.995 ± 0.077
UniProt P31350 and related entries	1.08 ± 0.13	1.07 ± 0.15
DNAJA1 (UniProt P31689)	1.01 ± 0.036	1.02 ± 0.052
SCP2 (UniProt P22307)	0.938 ± 0.012	0.941 ± 0.056
ITPKB (UniProt P27987)	0.921 ± 0.028	0.924 ± 0.16
UniProt P28838 and related entries	0.993 ± 0.049	1.01 ± 0.061
VARS (UniProt P26640)	1.05 ± 0.073	1.01 ± 0.036
UniProt P35658 and related entries	0.9977 ± 0.0083	0.983 ± 0.028
UniProt P23229 and related entries	0.967 ± 0.043	0.965 ± 0.024
AHCY (UniProt P23526)	1.02 ± 0.064	1.03 ± 0.068
